Assay: general procedure: solution-phase peptide synthesis; DppCl / NMM (mixed anhydride)
Settings: for cyclisation yield: cyclisation step

Row | Substance | step yield (coupling step) | step yield (late stage modification step) | further results
1 | Cyclo-[(Me)Ser-Abu-Sar-(Me)Leu-Val-(Me)Leu-Ala-D-Ala-(Me)Leu-(Me)Leu-(Me)Val] | – | – | cyclisation yield: 15%
2 | Cyclo-[(Me)Ser-Nle-Sar-(Me)Leu-Val-(Me)Leu-Ala-D-Ala-(Me)Leu-(Me)Leu-(Me)Val] | – | – | cyclisation yield: 16%
3 | Cyclo-[(Me)Ser-Nva-Sar-(Me)Leu-Val-(Me)Leu-Ala-D-Ala-(Me)Leu-(Me)Leu-(Me)Val] | – | – | cyclisation yield: 20% yield
4 | Cyclo-[(Me)Thr-Nle-Sar-(Me)Leu-Val-(Me)Leu-Ala-D-Ala-(Me)Leu-(Me)Leu-(Me)Val] | – | – | cyclisation yield: 14% yield
5 | Cyclo[Hyp-Abu-Sar-(Me)Leu-Val-(Me)Leu-Ala-D-Ala-(Me)Leu-(Me)Leu-(Me)Val] | – | – | cyclisation yield: 30%
6 | Fmoc-(Me)Thr(Bu^t)-Abu-Sar-(Me)Leu-Val-(Me)Leu-Ala-D-Ala-(Me)Leu-(Me)Leu-(Me)Val-OBu^t | 69% | – | –
7 | H-(Me)Ser-Nle-Sar-(Me)Leu-Val-(Me)Leu-Ala-D-Ala-(Me)Leu-(Me)Leu-(Me)Val-OH | – | 81% | –
8 | H-(Me)Ser-Nva-Sar-(Me)Leu-Val-(Me)Leu-Ala-D-Ala-(Me)Leu-(Me)Leu-(Me)Val-OH | – | 83% | –
9 | H-(Me)Ser-Thr-Sar-(Me) Leu-Val-(Me)Leu-Ala-D-Ala-(Me)Leu-(Me)Leu-(Me)Val-OH | – | 95% | –
10 | H-(Me)Thr-Nle-Sar-(Me)Leu-Val-(Me)Leu-Ala-D-Ala-(Me)Leu-(Me)Leu-(Me)Val-OH | – | 89% | –
11 | H-Abu-Sar-(Me)Leu-Val-(Me)Leu-Ala-D-Ala-(Me)Leu-(Me)Leu-(Me)Val-OBu^t | – | 97% | –
12 | H-D-Ala-(Me)Leu-(Me)Leu-(Me)Val-OBu^t | – | 93% | –
13 | H-Hyp-Abu-Sar-(Me)Leu-Val-(Me)Leu-Ala-D-Ala-(Me)Leu-(Me)Leu-(Me)Val-OH | – | 96% | –
14 | H-Hyp-Nle-Sar-(Me)Leu-Val-(Me)Leu-Ala-D-Ala-(Me)Leu-(Me)Leu-(Me)Val-OH | – | 79% | –
15 | H-Nle-Sar-(Me)Leu-Val-(Me)Leu-Ala-D-Ala-(Me)Leu-(Me)Leu-(Me)Val-OBu^t | – | 95% | –
16 | H-Nva-Sar-(Me)Leu-Val-(Me)Leu-Ala-D-Ala-(Me)Leu-(Me)Leu-(Me)Val-OBu^t | – | 94% | –
17 | H-Sar-(Me)Leu-Val-(Me)Leu-Ala-D-Ala-(Me)Leu-(Me)Leu-(Me)Val-OBu^t | – | 97% | –
18 | H-Thr(Bu^t)-Sar-(Me)Leu-Val-(Me)Leu-L-Ala-D-Ala-(Me)Leu-(Me)Leu-(Me)Val-OBu^t | – | 88% | –
19 | Z-(Me)Leu-Val-(Me)Leu-Ala-D-Ala-(Me)Leu-(Me)Leu-(Me)Val-OBu^t | – | – | step yield (coupling step, run 1): 27%; step yield (coupling step, run 2): 94%
20 | Z-(Me)Ser(Bu^t)-Abu-Sar-(Me)Leu-Val-(Me)Leu-Ala-D-Ala-(Me)Leu-(Me)Leu-(Me)Val-OBu^t | 41% | – | –

Row | Substance | step yield (coupling step) | step yield (late stage modification step) | further results
21 | Z-(Me)Ser(Bu^t)-Nle-Sar-(Me)Leu-Val-(Me)Leu-Ala-D-Ala-(Me)Leu-(Me)Leu-(Me)Val-OBu^t | 75% | – | –
22 | Z-(Me)Ser(Bu^t)-Nva-Sar-(Me)Leu-Val-(Me)Leu-Ala-D-Ala-(Me)Leu-(Me)Leu-(Me)Val-OBu^t | 73% | – | –
23 | Z-(Me)Ser(Bu^t)-Thr(Bu^t)-Sar-(Me)Leu-Val-(Me)Leu-Ala-D-Ala-(Me)Leu-(Me)Leu-(Me)Val-OBu^t | 52% | – | –
24 | Z-(Me)Ser-Nle-Sar-(Me)Leu-Val-(Me)Leu-Ala-D-Ala-(Me)Leu-(Me)Leu-(Me)Val-OH | – | 75% | –
25 | Z-(Me)Ser-Nva-Sar-(Me)Leu-Val-(Me)Leu-Ala-D-Ala-(Me)Leu-(Me)Leu-(Me)Val-OH | – | 60% | –
26 | Z-(Me)Ser-Thr-Sar-(Me)Leu-Val-(Me)Leu-Ala-D-Ala-(Me)Leu-(Me)Leu-(Me)Val-OH | – | 50% | –
27 | Z-(Me)Thr(Bu^t)-Abu-Sar-(Me)Leu-Val-(Me)Leu-Ala-D-Ala-(Me)Leu-(Me)Leu-(Me)Val-OBu^t | 86% | – | –
28 | Z-(Me)Thr(Bu^t)-Nle-Sar-(Me)Leu-Val-(Me)Leu-Ala-D-Ala-(Me)Leu-(Me)Leu-(Me)Val-OBu^t | 64% | – | –
29 | Z-(Me)Thr(Bu^t)-Nva-Sar-(Me)Leu-Val-(Me)Leu-Ala-D-Ala-(Me)Leu-(Me)Leu-(Me)Val-OBu^t | 65% | – | –
30 | Z-(Me)Thr-Nle-Sar-(Me)Leu-Val-(Me)Leu-Ala-D-Ala-(Me)Leu-(Me)Leu-(Me)Val-OH | – | 60% | –
31 | Z-(Val-(Me)Leu-Ala-D-Ala-(Me)Leu-(Me)Leu-(Me)Val-OBu^t | – | 79% | –
32 | Z-Abu-Sar-(Me)Leu-Val-(Me)Leu-Ala-D-Ala-(Me)Leu-(Me)Leu-(Me)Val-OBu^t | 90% | – | –
33 | Z-Ala-D-Ala-(Me)Leu-(Me)Leu-(Me)Val-OBu^t | 88% | – | –
34 | Z-D-Ala-(Me)Leu-(Me)Leu-(Me)Val-OBu^t | 80% | – | –
35 | Z-Hyp-Abu-Sar-(Me)Leu-Val-(Me)Leu-Ala-D-Ala-(Me)Leu-(Me)Leu-(Me)Val-OH | – | 65% | –
36 | Z-Hyp-Nle-Sar-(Me)Leu-Val-(Me)Leu-Ala-D-Ala-(Me)Leu-(Me)Leu-(Me) Val-OH | – | 77% | –
37 | Z-Nle-Sar-(Me)Leu-Val-(Me)Leu-Ala-D-Ala-(Me)Leu-(Me)Leu-(Me)Val-OBu^t | 77% | – | –
38 | Z-Sar-(Me)Leu-Val-(Me)Leu-Ala-D-Ala-(Me)Leu-(Me)Leu-(Me)Val-OBu^t | 64% | – | –
39 | Z-Thr(Bu^t)-Sar-(Me)Leu-Val-(Me)Leu-Ala-D-Ala-(Me)Leu-(Me)Leu-(Me)Val-OBu^t | 48% | – | –
40 | Z-Val-(Me)Leu-Ala-D-Ala-(Me)Leu-(Me)Leu-(Me)Val-OBu^t | 75% | – | –

Reference: patent publication US5079341 (dated 1992)
